Source: patent US20220411523A1
These are yes or no findings as the source states them, for the method shown. Some results given as binding are weak or reduced against the parent protein; the word gives no strength.

Biological target: monkey 4-1BB on the cell membrane surface of CHO-K1 cells (monkey)
Assay: FACS, CHO-K1-cy4-1BB cells

B1: Hanke10F4 (antibody, human IgG4 S228P, kappa, V domains shown)
VH: QVQLQESGPGLVKPSETLSITCTVSGSSLTSYGVHWVRQPPGKGLEGLGVIWPGGSTNYNSALMSRLTISKDNSKSQVSLKMSSLTAADTAMYYCARVTGTWYFDVWGQGTTVTVSS
VL: DIQMTQSPSSLSASLGDRVTISCSASQGISNYLNWYQQKPDGTVKLLIYYTSTLHSGVPSRFSGSGSGTDFTLTISSLQPEDVATYYCQQYSKLPWTFGGGTKLEIKR
binding: binds
